# Test results reported in PubChem BioAssay AID2685 (National Center for Advancing Translational Sciences (NCATS), 2010).
# The list shows a part of the results. Shown are side measurements of this screen, not its main read-out; they come without a call. Most of these compounds were active or inconclusive in the main read-out, so they are no random draw. Words in brackets tell the shape of the fitted curve; partial curves, single points and poor fits give uncertain potencies.
# Test: qHTS Assay for Lipid Storage Modulators in Drosophila S3 Cells;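 as to cell number change: cells counted by Cell Tracker Red CMTPX staining in the red channel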
# Details: BODIPY lipid droplet fluorescence, 18-24 h; for cell number change: measured here: cell count max response, cells fed with added oleic acid
# Procedure, shortened: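 Drosophila S3 cells got compounds at several concentrations plus oleic acid (400 uM solution). Laser-scanning cytometry with 488 nm excitation read lipid droplets at 500-530 nm and cells at 575-640 nm. Percent activity was relative to 20 uM Triacsin C.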
# [1] = measured here: lipid fluorescence (Fed channel) AC50, cells fed with added oleic acid
# [2] = measured here: cell number channel AC50, cells fed with added oleic acid
Compound,cell number change [%],AC50 [1],AC50 [2]
CCOC(=O)c1ccc(N2C(=O)C(C)=C(C)C2=O)cc1,-10.1,"0.00517 µM [rising, full curve, poor fit]",
C(=C\c1ccccc1)/C=N/Nc1nc2ccccc2s1,-16.2,"0.291 µM [rising, partial curve, poor fit]",
COc1ccccc1NC(=O)CCSc1ccc(C)cc1,-36.8,"29.1 µM [falling, single point]","29.1 µM [falling, single point]"
CCOC(=O)c1cc2occc2n1CC(=O)N1CCCc2ccccc21,-15.8,"14.6 µM [rising, partial curve, poor fit]",
O=C(Nc1ccc2c3c(cccc13)CC2)c1ccc(Br)o1,141,,"18.4 µM [rising, partial curve, poor fit]"
CCCOc1ccc(C2/C(=C(\O)c3c(C)[nH]c(C(=O)OC)c3C)C(=O)C(=O)N2CCN(C)C)cc1 (stereo not given),-3.2,,
O=C(O)c1cccc(N2C(=O)C3C4C=CC(C4=C(c4ccccc4)c4ccccc4)C3C2=O)c1 (stereo not given),-9.24,,"3.26 µM [rising, single point]"
Nc1nc(SCC(=O)Nc2ccc(OC(F)(F)F)cc2)[nH]c(=O)c1NC(=O)c1ccc(Br)o1,-0.54,"0.00461 µM [falling, full curve, poor fit]",
CCOC(=O)C1=C(N)n2c(s/c(=C\c3cccs3)c2=O)=C(C(=O)OCC)C1c1cccs1 (stereo not given),27.9,"29.1 µM [rising, single point]",
O=C(Cc1cccs1)Nc1cccc(-c2nc3cc4ccccc4cc3[nH]2)c1,58.8,,"5.17 µM [rising, partial curve]"
Cc1cccc(NC(=O)C[n+]2ccc(N(C)C)cc2)c1,-31.5,"0.146 µM [falling, full curve, poor fit]","20.6 µM [falling, partial curve, poor fit]"
Cc1nc2cc(N3CCCCC3)c(NC(=O)c3ccncc3)cc2c(=O)n1Cc1ccccc1,49.3,"6.51 µM [falling, single point]","14.6 µM [rising, partial curve]"
CC(C)N1CCN(Cc2ccc(OC3CCCC3)cc2)CC1CCO (stereo not given),12.5,"29.1 µM [rising, single point]",
O=c1[nH]cc(O)c(=O)[nH]1,19.4,"6.51 µM [falling, single point]",
Cc1ccc(NC(=O)c2ccccc2-c2ccccc2C(=O)O)cc1,8.3,"6.51 µM [falling, single point]",
CCN(Cc1ccc2c(c1)OCCO2)C(=O)CSc1nc(C)nc2sc(C)c(C)c12,-3.21,,
CCOC(=O)c1ccc(Oc2cc(C)nc(Cl)n2)cc1,-9.01,,
CN(C(=O)COC(=O)c1cn(-c2ccccc2)nc1-c1ccccc1)C1CCS(=O)(=O)C1 (stereo not given),11.1,"29.1 µM [rising, single point]","6.51 µM [rising, partial curve, poor fit]"
COc1ccc(CN2C(=O)NC3(CCCCCC3)C2=O)cc1F,5.1,"1.84 µM [rising, full curve, poor fit]",
OCn1ncn(-c2ccccc2)c1=S,17.8,"0.13 µM [falling, full curve, poor fit]",

Compound,cell number change [%],AC50 [1],AC50 [2]
CCNc1nc(CN2CCCCC2)nc2scc(-c3ccccc3)c12,-6.23,"29.1 µM [falling, single point]",
Cc1ccc(S(=O)(=O)Cn2cnnn2)cc1,-2.42,,
CCCCNC(=S)NNC(=O)C1=NN(c2cc(C)ccc2C)C(=O)CC1,,"2.06 µM [falling, partial curve]",
CC1CCCCC1NC(=O)COC(=O)COc1ccccc1Cl (stereo not given),,,"0.58 µM [rising, single point]"
Cc1cc2[nH]c(=O)c(=O)[nH]c2cc1S(=O)(=O)NCc1ccccc1,-7.55,"18.4 µM [rising, partial curve]",
C(=N\c1nc2ccccc2n1CCN1CCCCC1)/c1ccc2c(c1)OCO2,40.3,,"20.6 µM [rising, single point]"
Cc1ccc(CSCC(=O)N2CCCC2)cc1,11.6,"0.231 µM [falling, full curve, poor fit]",
Cc1ccc2nc(Nc3nc(=O)c4ccccc4n3C)nc(C)c2c1,-13,"2.31 µM [rising, full curve, poor fit]",
FC(F)Oc1ccc(-c2csc(NNC3=NCCCCC3)n2)cc1,-55.5,"29.1 µM [falling, partial curve]","32.6 µM [falling, single point]"
O=C(CN1CCC(NC(=O)c2ccccc2)CC1)NCc1ccccc1F,16,"29.1 µM [rising, single point]",
CCCCN(CC)CCNC(=O)c1cc2c(-c3ccc(Cl)cc3)nn(C)c2s1,-31.6,,"16.4 µM [falling, single point]"
COc1cc(C(=O)NCCCC2CCCC2)ccc1OC1CCN(C(C)=O)CC1,-5.25,"4.11 µM [rising, single point]",
N#C/C(=C1\CCCN1)c1nc(-c2ccccc2)cs1,7.67,,
Cc1ccc(C)c(S(=O)(=O)N2CCN(C(=O)c3n[nH]c(=O)c4ccccc34)CC2)c1,0.205,,
COC(=O)CNc1nc(-c2ccccc2F)nc2ccccc12,31.7,"5.8 µM [rising, full curve]","1.03 µM [rising, full curve, poor fit]"
O=C(Nc1ccc(Nc2ccccc2)cc1)c1ccco1,204,,"20.6 µM [rising, partial curve]"
O=C(c1ccc(CS(=O)Cc2ccc(Cl)cc2)o1)N1CCN(c2ccc(F)cc2)CC1 (stereo not given),,"0.146 µM [falling, full curve, poor fit]",
CC(C)(C)OC(=O)n1cc(/C=N/NC(=O)c2ccco2)c2ccccc21,29.3,"35.5 µM [falling, single point]",
COc1ccc(S(=O)(=O)N(Cc2ccc(OC)c(OC)c2)Cc2ccco2)cc1,-5.76,"1.16 µM [rising, full curve, poor fit]",

# Among those listed so far, these have a COOH group:
Compound,cell number change [%],AC50 [1],AC50 [2]
O=C(O)c1cccc(N2C(=O)C3C4C=CC(C4=C(c4ccccc4)c4ccccc4)C3C2=O)c1 (stereo not given),-9.24,,"3.26 µM [rising, single point]"
Cc1ccc(NC(=O)c2ccccc2-c2ccccc2C(=O)O)cc1,8.3,"6.51 µM [falling, single point]",
